Values joined by “and” are separate entries in the source; they are usually repeats but may differ in a detail not shown here. Equal values may be shown once. Where a name gives a salt, the structure may show the parent alone.
Experiments:
Design in all cases: species or system mice
[1] = test system: clonogenic stem cells of the digestive epithelium; test: In vivo protection of intestinal epithelium clonogenic stem cells, chemotherapy drug (5-Flurouracil) damage
Experimental: In Vivo Protection of Intestinal Epithelium Clonogenic Stem Cells—Chemotherapy Drug Damage.
The ability of foscarnet (phosphonoformic acid trisodium salt hexahydrate) to prevent cytotoxic damage to clonogenic stem cells of the digestive epithelium was illustrated by the following experiment.
The model of cytotoxic insult used was treatment with 2 doses of 5-Flurouracil 6 hours apart at either 400 mg or 500 mg of 5-Fluorouracil/kilogram bodyweight. Such cytotoxic treatment provides a model of chemotherapy administered to patients undergoing treatment for cancer.
Five experimental groups, each of five mice, were established as set out below:
Group 1: Received intra-peritoneal injection, containing 50 mg foscarnet/kilogram bodyweight, in sterile water, one hour prior to the first cytotoxic treatment (400 mg 5-Flurouracil/kilogram bodyweight). Received one further identical injection on each of the three days following cytotoxic treatment. […]
Group 3: Vehicle control. Received intra-peritoneal injection, of sterile water, one hour prior to both cytotoxic treatments (400 mg 5-Flurouracil/kilogram bodyweight). Received one further identical injection on each of the three days following cytotoxic treatment. […]
(§1) On the fourth day after treatment the animals of each group were killed, and intestinal tissue harvested for histological analysis. Tissue sections were stained with haemotoxylin and eosin, and were analysed for the presence of regenerating intestinal crypts. Regenerating intestinal crypts are derived from one or more surviving clonogenic stem cells, whereas sterilised crypts (containing no surviving stem cells) disappear within two days of irradiation. The number of regenerating crypts per intestinal circumference was counted, and the mean crypt width measured. Scores for each animal were then corrected to account for the probability of preferentially scoring larger crypts according to the following equation: [formula]
(§2) For each treatment a Protection Factor was calculated using the following equation: corrected crypts/circumference treated corrected crypts/circumference untreated (vehicle)

[2] = test system: clonogenic stem cells of the digestive epithelium; test: In vivo protection of intestinal epithelium clonogenic stem cells, chemotherapy drug damage, independent experiment 2
Experimental: In Vivo Protection of Intestinal Epithelium Clonogenic Stem Cells—Chemotherapy Drug Damage—Independent Experiment 2.
The data presented in Example 4 were expanded in the following study, in which the ability of foscarnet (phosphonoformic acid trisodium salt hexahydrate) to prevent cytotoxic damage to clonogenic stem cells of the digestive epithelium was investigated using the following experiment.
The model of cytotoxic insult used was treatment with 2 doses of 5-Flurouracil 6 hours apart at 400 mg of 5-Fluorouracil/kilogram bodyweight. Such cytotoxic treatment provides a model of chemotherapy administered to patients undergoing treatment for cancer.
8 experimental groups, each of six mice, were established as set out below:
Group 1: Received intra-peritoneal injection, containing 50 mg foscarnet/kilogram bodyweight, in sterile water, one hour prior to the first cytotoxic treatment. Received one further identical injection on each of the three days following cytotoxic treatment.
Group 2: Received intra-peritoneal injection, containing 50 mg foscarnet/kilogram bodyweight, in sterile water, one hour prior to the first cytotoxic treatment.
Group 3: Received intra-peritoneal injection, containing 50 mg foscarnet/kilogram bodyweight, in sterile water on each of the three days following cytotoxic treatment.
Group 4: Received intra-peritoneal injection, containing 50 mg foscarnet/kilogram bodyweight, in sterile water, 5 minutes prior to the first cytotoxic treatment. Received one further identical injection on each of the three days following cytotoxic treatment.
Group 5: Vehicle control. Received intra-peritoneal injection, of sterile water, one hour prior to the first cytotoxic treatment. Received one further identical injection on each of the days following cytotoxic treatment.
Group 6: Vehicle control. Received intra-peritoneal injection, of sterile water, one hour prior to the first cytotoxic treatment.
Group 7: Vehicle control. Received intra-peritoneal injection, of sterile water, on each of the three days following cytotoxic treatment.
Group 8: Vehicle control. Received intra-peritoneal injection, of sterile water, 5 minutes prior to the first cytotoxic treatment. Received one further identical injection on each of the three days following cytotoxic treatment.
as §1, §2

[3] = test system: clonogenic stem cells of the digestive epithelium; test: In vivo protection of intestinal epithelium clonogenic stem cells, radiation damage, independent experiment 1 (regenerating crypts); details: day 4
From the text: In Vivo Protection of Intestinal Epithelium Clonogenic Stem Cells—Radiation Damage Independent Experiment 1.
(§3) The ability of foscarnet (phosphonoformic acid trisodium salt hexahydrate) to prevent radiological damage to clonogenic stem cells of the digestive epithelium was illustrated by the following experiment.
(§4) The model of radiological insult used was treatment with 13 Gy X-ray whole body radiation at a dose rate of 0.7 Gy/minute. Such radiation treatment provides a model of radiotherapy administered to patients undergoing treatment for cancer.
Four experimental groups, each of six mice, were established as set out below:
(§5) Group 1: Received intra-peritoneal injection, containing 50 mg foscarnet/kilogram bodyweight, in sterile water, one hour prior to radiation treatment. Received one further identical injection on each of the three days following radiation treatment.
Group 2: Received intra-peritoneal injection, containing 100 mg foscarnet/kilogram bodyweight, in sterile water, one hour prior to radiation treatment. Received one further identical injection on each of the three days following radiation treatment.
(§6) Group 3: Vehicle control. Received intra-peritoneal injection, of sterile water, one hour prior to radiation treatment. Received one further identical injection on each of the three days following radiation treatment.
Group 4: Untreated controls. Received neither injections nor exposure to radiation.
as §1, §2

[4] = test system: clonogenic stem cells of the digestive epithelium; test: In vivo protection of intestinal epithelium clonogenic stem cells, radiation damage, independent experiment 2; details: day 4
From the text: In Vivo Protection of Intestinal Epithelium Clonogenic Stem Cells—Radiation Damage Independent Experiment 2.
as §3, §4
Three experimental groups, each of six mice, were established as set out below:
as §5
Group 2: Received intra-peritoneal injection, containing 25 mg foscarnet/kilogram bodyweight, in sterile water, one hour prior to radiation treatment. Received one further identical injection on each of the three days following radiation treatment.
as §6, §1, §2

[5] = 13Gy plus 50 mg foscarnet -1 hr, 1, 2, 3 day, group Average
[6] = 13Gy plus 50 mg foscarnet -1 hr, 1, 2, 3 day, individual mice

## O=C(O)P(=O)(O)O [foscarnet, phosphonoformic acid trisodium salt hexahydrate]
[1]; 50 mg foscarnet 1 hr prior to 1st dose of 5-Flurouracil (400 mg/kg x 2 6 hrs apart) and D1, D2, D3, group Average
  crypt width: 30.93 um
[1]; 50 mg foscarnet 1 hr prior to 1st dose of 5-Flurouracil (400 mg/kg x 2 6 hrs apart) and D1, D2, D3, individual mice
  crypt width: 32.47 um and 29.79 um and 29.81 um and 31.12 um and 31.44 um
[1]; 50 mg foscarnet 1 hr prior to both doses of 5-Flurouracil (400 mg/kg x 2 6 hrs apart) and D1, D2, D3, group Average
  crypt width: 30.39 um
[1]; 50 mg foscarnet 1 hr prior to both doses of 5-Flurouracil (400 mg/kg x 2 6 hrs apart) and D1, D2, D3, individual mice
  crypt width: 31.84 um and 29.66 um and 31.83 um and 28.80 um and 29.84 um
[1]; 50 mg foscarnet 1 hr prior to both doses of 5-Flurouracil (500 mg/kg x 2 6 hrs apart) and D1, D2, D3, group Average
  crypt width: 29.46 um
[1]; 50 mg foscarnet 1 hr prior to both doses of 5-Flurouracil (500 mg/kg x 2 6 hrs apart) and D1, D2, D3, individual mice
  crypt width: 28.66 um and 28.59 um and 31.53 um and 30.86 um and 27.67 um
[2]; 400 mg/kg 5FU x 2 6 hours apart plus 50 mg foscarnet/kg -5 minutes, D1, D2, D3, group Ave
  crypt width: 33.68 um
[2]; 400 mg/kg 5FU x 2 6 hours apart plus 50 mg foscarnet/kg -5 minutes, D1, D2, D3, individual mice
  crypt width: 32.18 um and 37.12 um and 32.92 um and 32.76 um and 31.60 um and 35.47 um
[2]; 400 mg/kg 5FU x 2 6 hours apart plus 50 mg foscarnet/kg -1 hr only, group Ave
  crypt width: 33.71 um
[2]; 400 mg/kg 5FU x 2 6 hours apart plus 50 mg foscarnet/kg -1 hr only, individual mice
  crypt width: 38.42 um and 31.11 um and 34.22 um and 34.21 um and 32.90 um and 31.39 um
[2]; 400 mg/kg 5FU x 2 6 hours apart plus 50 mg foscarnet/kg -1 hr, D1, D2, D3, group Ave
  crypt width: 32.99 um
[2]; 400 mg/kg 5FU x 2 6 hours apart plus 50 mg foscarnet/kg -1 hr, D1, D2, D3, individual mice
  crypt width: 33.83 um and 29.37 um and 33.63 um and 34.46 um and 34.13 um and 32.51 um
[2]; 400 mg/kg 5FU x 2 6 hours apart plus 50 mg foscarnet/kg D1, D2, D3, group Ave
  crypt width: 31.34 um
[2]; 400 mg/kg 5FU x 2 6 hours apart plus 50 mg foscarnet/kg D1, D2, D3, individual mice
  crypt width: 32.56 um and 28.88 um and 31.39 um and 33.06 um and 28.39 um and 33.74 um
[3]; [5]
  crypt width: 50.9 um
[3]; [6]
  crypt width: 52.3 um and 50.7 um and 52.1 um and 48.0 um and 51.4 um
[3]; 13Gy plus 100 mg foscarnet -1 hr, 1, 2, 3 day, group Average
  crypt width: 50.3 um
[3]; 13Gy plus 100 mg foscarnet -1 hr, 1, 2, 3 day, individual mice
  crypt width: 51.8 um and 51.6 um and 48.7 um and 51.4 um and 47.8 um
[4]; 13Gy plus 25 mg foscarnet -1 hr, 1, 2, 3 day, group Average
  crypt width: 57.4 um
[4]; 13Gy plus 25 mg foscarnet -1 hr, 1, 2, 3 day, individual mice
  crypt width: 52.5 um and 59.2 um and 57.4 um and 60.7 um and 59.5 um and 55.1 um
[4]; [5]
  crypt width: 54.7 um
[4]; [6]
  crypt width: 52.0 um and 57.1 um and 55.6 um and 61.9 um and 51.1 um and 50.5 um
